Source: patent publication US20050107289A1, “Anti-microbial peptides and compositions” (priority 2001, published 2005)
Some of these results come from one statement about several compounds together. Non-standard residues stand in square brackets, D forms with d. Residues, ends and D or L forms follow the SMILES beside them.

Experiments:
[1] = tested on: S. aureus (MRSA) (ATCC No. 33591); experiment: Time-killing curve, S. aureus MRSA ATCC 33591; assay type: cell-based, Staphylococcus aureus; conditions: for reduction in cfu count: FIG. 8a, at MIC concentrations; for time to complete bactericidal activity against S. aureus MRSA: concentrations equal to or above the MIC
Protocol: (§1) The speed at which several of the cyclic peptides of the invention kill E. coli JM 109 (DE3), Enterococcus faecium SP 180 and S. aureus (MRSA) (ATCC No. 33591 and 33592) was further tested at room temperature and/or at 37° C. A lower temperature tends to enrich the bacterial cultures for mature bacteria because the bacteria are not growing quickly. […] The presence or absence of immature bacteria in the culture may influence the rate at which the bacteria are killed, because immature bacteria tend to be more susceptible to many forms of antibiotics.
To generate the data shown in FIG. 8a, the log of the number of colony forming units (cfu) per ml of culture was determined as a function of time after treatment of S. aureus (MRSA) (ATCC No. 33591) with cyclo[KHLWLW] (closed circles), cyclo[KRKWLWLW] (closed triangles), and cyclo[KQRWLWLW] (open squares) at MIC concentrations. […] The reduction in cfu count was greater than 3 log units. Cyclic peptide cyclo[KHLWLW] killed effectively all S. aureus (MRSA) within about 60 minutes.

S. aureus (ATCC 25923) = experiment: Membrane depolarization of intact S. aureus (diSC3 dye); assay type: cell-based, Staphylococcus aureus; conditions: FIG. 3; peptide added at t=1 min, aliquots at t=4 min
E. coli JM109 (DE3) = experiment: Time-killing curve, E. coli; assay type: cell-based, Escherichia coli; conditions: FIG. 8b; at MIC concentrations
Protocol: as §1
In FIG. 8b, the log of the number of E. coli colony forming units (cfu) per ml of culture is plotted versus time treated with cyclo[KRKWLWLW] (closed triangles), cyclo[KQRWLWLW] (closed circles), cyclo[KHLWLW] (closed squares), and cyclo[KKWLW] (open squares) at MIC concentrations. […] Cyclic peptide cyclo[KHKLWLW] kills effectively all E. coli within about 90 minutes. Cyclic peptides cyclo[KRKWLWLW] and cyclo[KKWLW] kill effectively all of the E. coli within about 130 minutes. […] Nonetheless, these cyclic peptides kill both types of bacteria very quickly.

| Compound | reduction in cfu count [1] | time to complete bactericidal activity against S. aureus MRSA [1] | reduction in viability upon addition of peptide (S. aureus (ATCC 25923)) | time to kill effectively all E. coli (E. coli JM109 (DE3)) |
| --- | --- | --- | --- | --- |
| CC(C)C[C@H]1NC(=O)[C@H](Cc2c[nH]c3ccccc23)NC(=O)[C@@H](CCCNC(=N)N)NC(=O)[C@H](CCC(N)=O)NC(=O)[C@@H](CCCCN)NC(=O)[C@H](Cc2c[nH]c3ccccc23)NC(=O)[C@@H](CC(C)C)NC(=O)[C@H](Cc2c[nH]c3ccccc23)NC1=O [SEQ ID NO:8, cyclo-(D-Lys-Gln-D-Arg-Trp-D-Leu-Trp-D-Leu-Trp)] (cyclo([dK]Q[dR]W[dL]W[dL]W)) | greater than 3 log units | ≤ 5 min | ≥ 1000 fold |  |
| CC(C)C[C@H]1NC(=O)[C@H](Cc2c[nH]cn2)NC(=O)[C@@H](CCCCN)NC(=O)[C@H](Cc2c[nH]c3ccccc23)NC(=O)[C@@H](CC(C)C)NC(=O)[C@H](Cc2c[nH]c3ccccc23)NC1=O [SEQ ID NO:27, cyclo-(D-Lys-His-D-Leu-Trp-D-Leu-Trp)] (cyclo(H[dL]W[dL]W[dK])) |  | ≤ 60 min |  |  |
| CC(C)C[C@H]1NC(=O)[C@H](CCCCN)NC(=O)[C@@H](CCCCN)NC(=O)[C@H](Cc2c[nH]c3ccccc23)NC(=O)[C@@H](CC(C)C)NC(=O)[C@H](Cc2c[nH]c3ccccc23)NC1=O [SEQ ID NO:26, cyclo-(D-Lys-Lys-D-Leu-Trp-D-Leu-Trp)] (cyclo(K[dL]W[dL]W[dK])) |  | ≤ 60 min | ≥ 1000 fold | ≤ 130 min |
| CC(C)C[C@H]1NC(=O)[C@H](Cc2c[nH]c3ccccc23)NC(=O)[C@@H](CCCCN)NC(=O)[C@H](CCCNC(=N)N)NC(=O)[C@@H](CCCNC(=N)N)NC(=O)[C@H](Cc2c[nH]c3ccccc23)NC(=O)[C@@H](CC(C)C)NC(=O)[C@H](Cc2c[nH]c3ccccc23)NC1=O [SEQ ID NO:18, cyclo-(D-Arg-Arg-D-Lys-Trp-D-Leu-Trp-D-Leu-Trp)] (cyclo([dR]R[dK]W[dL]W[dL]W)) |  |  | ≥ 1000 fold |  |
| CC(C)C[C@H]1NC(=O)[C@H](Cc2c[nH]c3ccccc23)NC(=O)[C@@H](CCCCN)NC(=O)[C@H](CCCNC(=N)N)NC(=O)[C@@H](CCCCN)NC(=O)[C@H](Cc2c[nH]c3ccccc23)NC(=O)[C@@H](CC(C)C)NC(=O)[C@H](Cc2c[nH]c3ccccc23)NC1=O [SEQ ID NO:19, D-Lys-Arg-D-Lys-Trp-D-Leu-Trp-D-Leu-Trp] (cyclo([dK]R[dK]W[dL]W[dL]W)) | greater than 3 log units | ≤ 5 min |  | ≤ 130 min |
